Measured values as given in paper PMC3174178.
Results are given in words; binding and its absence hold for the method and conditions named. In cells and extracts the contact can be indirect. Some entries that bind do so weakly or less than the wild type.

The chains behind the UniProt entries cited, without tags or fusion partners.
UniProt Q9UGU0: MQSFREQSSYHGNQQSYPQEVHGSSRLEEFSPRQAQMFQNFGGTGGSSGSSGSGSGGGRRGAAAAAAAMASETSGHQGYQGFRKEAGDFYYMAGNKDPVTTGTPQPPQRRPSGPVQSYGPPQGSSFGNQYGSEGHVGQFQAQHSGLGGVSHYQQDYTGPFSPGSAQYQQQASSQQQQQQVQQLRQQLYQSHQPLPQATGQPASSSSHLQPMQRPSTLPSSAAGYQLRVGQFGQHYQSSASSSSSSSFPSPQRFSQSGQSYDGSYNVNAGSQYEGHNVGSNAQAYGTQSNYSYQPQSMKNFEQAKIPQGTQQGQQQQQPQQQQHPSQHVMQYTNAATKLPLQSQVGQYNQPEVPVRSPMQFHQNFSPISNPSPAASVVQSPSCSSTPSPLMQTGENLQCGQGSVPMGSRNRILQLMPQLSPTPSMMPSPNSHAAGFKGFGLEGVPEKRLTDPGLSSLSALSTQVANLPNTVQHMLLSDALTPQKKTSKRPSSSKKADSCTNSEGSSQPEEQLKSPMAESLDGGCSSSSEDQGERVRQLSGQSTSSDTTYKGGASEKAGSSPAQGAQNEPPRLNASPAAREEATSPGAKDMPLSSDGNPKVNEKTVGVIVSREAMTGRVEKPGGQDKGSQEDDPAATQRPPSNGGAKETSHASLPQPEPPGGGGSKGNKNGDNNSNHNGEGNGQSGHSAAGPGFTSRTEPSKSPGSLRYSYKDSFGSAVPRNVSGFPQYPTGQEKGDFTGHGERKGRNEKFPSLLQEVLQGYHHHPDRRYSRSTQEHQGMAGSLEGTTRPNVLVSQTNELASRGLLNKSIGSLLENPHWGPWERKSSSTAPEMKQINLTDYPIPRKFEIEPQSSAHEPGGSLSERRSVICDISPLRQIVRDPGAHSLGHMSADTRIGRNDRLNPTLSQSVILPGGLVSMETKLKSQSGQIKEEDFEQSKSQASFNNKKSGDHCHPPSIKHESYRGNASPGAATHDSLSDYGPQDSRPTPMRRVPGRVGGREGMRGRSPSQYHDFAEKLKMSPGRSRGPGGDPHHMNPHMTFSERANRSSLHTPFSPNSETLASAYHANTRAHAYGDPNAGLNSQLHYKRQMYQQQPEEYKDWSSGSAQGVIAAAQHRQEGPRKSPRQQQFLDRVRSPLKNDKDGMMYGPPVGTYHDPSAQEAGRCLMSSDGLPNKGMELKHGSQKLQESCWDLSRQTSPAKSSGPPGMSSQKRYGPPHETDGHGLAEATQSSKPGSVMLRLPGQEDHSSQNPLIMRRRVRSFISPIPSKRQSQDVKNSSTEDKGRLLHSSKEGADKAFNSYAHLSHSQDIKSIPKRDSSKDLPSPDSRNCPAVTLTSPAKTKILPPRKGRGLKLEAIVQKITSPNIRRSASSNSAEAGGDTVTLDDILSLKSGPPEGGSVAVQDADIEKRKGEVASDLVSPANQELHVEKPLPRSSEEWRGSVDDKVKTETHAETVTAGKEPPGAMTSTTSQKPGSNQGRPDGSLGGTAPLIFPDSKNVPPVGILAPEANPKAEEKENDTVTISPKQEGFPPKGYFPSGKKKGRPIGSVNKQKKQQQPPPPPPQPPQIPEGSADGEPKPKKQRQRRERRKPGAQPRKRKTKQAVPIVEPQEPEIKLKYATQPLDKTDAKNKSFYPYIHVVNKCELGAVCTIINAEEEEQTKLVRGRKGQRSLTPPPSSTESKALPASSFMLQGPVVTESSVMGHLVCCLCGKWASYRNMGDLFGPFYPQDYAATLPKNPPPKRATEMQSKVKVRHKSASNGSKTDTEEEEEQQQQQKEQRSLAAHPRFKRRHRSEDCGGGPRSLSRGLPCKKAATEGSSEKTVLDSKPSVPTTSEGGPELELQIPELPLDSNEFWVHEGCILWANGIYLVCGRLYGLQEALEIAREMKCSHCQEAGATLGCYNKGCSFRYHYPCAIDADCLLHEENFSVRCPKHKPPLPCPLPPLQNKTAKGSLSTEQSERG
UniProt P10275: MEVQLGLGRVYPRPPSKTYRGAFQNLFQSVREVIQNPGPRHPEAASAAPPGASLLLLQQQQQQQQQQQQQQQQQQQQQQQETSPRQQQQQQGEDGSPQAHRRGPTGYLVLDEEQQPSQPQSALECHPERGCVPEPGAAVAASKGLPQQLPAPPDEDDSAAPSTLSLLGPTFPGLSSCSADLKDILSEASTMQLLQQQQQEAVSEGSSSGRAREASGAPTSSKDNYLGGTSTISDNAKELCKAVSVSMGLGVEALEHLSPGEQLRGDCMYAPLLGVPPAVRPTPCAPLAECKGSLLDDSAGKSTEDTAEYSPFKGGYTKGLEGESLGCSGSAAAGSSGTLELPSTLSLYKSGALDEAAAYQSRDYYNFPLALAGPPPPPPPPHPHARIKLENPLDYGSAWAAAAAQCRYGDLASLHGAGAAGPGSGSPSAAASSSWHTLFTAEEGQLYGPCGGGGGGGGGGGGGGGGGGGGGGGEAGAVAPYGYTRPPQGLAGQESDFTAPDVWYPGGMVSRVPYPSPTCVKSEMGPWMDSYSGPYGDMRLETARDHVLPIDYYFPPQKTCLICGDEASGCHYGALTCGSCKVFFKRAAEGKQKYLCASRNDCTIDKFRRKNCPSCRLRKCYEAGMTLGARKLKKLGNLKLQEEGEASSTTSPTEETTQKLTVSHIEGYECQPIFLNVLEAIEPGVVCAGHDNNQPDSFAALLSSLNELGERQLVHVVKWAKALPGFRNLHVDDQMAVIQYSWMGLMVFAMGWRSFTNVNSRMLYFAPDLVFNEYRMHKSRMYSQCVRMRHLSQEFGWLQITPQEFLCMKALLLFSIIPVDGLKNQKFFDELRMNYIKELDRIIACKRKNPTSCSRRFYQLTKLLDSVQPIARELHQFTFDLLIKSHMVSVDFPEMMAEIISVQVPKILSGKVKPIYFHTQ

What was measured:
[1] = target: in vitro translated 35S-methionine labeled SPBP (HA-SPBP) (UniProt Q9UGU0); test: co-IP; both proteins in vitro translated with 35S-methionine, precipitated with anti-SPBP antibody or preimmune serum
[2] = target: EGFP-AR (UniProt P10275); test: co-IP; HeLa cells cotransfected with pDestEGFP-AR and pDestHA-SPBP, not stimulated with R1881; precipitated with anti-GFP, blotted with anti-SPBP
[3] = target: EGFP-AR (UniProt P10275); test: co-IP; HeLa cells cotransfected with pDestEGFP-AR and pDestHA-SPBP, stimulated with 10^-7 M R1881; precipitated with anti-GFP, blotted with anti-SPBP

binding [1]	binding [3]	Substance	binding [2]
binds		GFP-AR, in vitro translated (from UniProt P10275 1-920)	
	binds	HA-SPBP (from UniProt Q9UGU0 1-1960)	no binding (condition: cells not stimulated with R1881)
